Measurements taken from patent publication US20180147271A1.
No constants are given. Whether binding was seen depends on the method and setting. Some results given as binding are weak or reduced against the parent protein; the word gives no strength.

By UniProt entry, the sequences of proteins in these tests, tags left out. Where a name states a change or a piece, a line headed by the entry shows the natural chain unless it says otherwise.
UniProt Q01973: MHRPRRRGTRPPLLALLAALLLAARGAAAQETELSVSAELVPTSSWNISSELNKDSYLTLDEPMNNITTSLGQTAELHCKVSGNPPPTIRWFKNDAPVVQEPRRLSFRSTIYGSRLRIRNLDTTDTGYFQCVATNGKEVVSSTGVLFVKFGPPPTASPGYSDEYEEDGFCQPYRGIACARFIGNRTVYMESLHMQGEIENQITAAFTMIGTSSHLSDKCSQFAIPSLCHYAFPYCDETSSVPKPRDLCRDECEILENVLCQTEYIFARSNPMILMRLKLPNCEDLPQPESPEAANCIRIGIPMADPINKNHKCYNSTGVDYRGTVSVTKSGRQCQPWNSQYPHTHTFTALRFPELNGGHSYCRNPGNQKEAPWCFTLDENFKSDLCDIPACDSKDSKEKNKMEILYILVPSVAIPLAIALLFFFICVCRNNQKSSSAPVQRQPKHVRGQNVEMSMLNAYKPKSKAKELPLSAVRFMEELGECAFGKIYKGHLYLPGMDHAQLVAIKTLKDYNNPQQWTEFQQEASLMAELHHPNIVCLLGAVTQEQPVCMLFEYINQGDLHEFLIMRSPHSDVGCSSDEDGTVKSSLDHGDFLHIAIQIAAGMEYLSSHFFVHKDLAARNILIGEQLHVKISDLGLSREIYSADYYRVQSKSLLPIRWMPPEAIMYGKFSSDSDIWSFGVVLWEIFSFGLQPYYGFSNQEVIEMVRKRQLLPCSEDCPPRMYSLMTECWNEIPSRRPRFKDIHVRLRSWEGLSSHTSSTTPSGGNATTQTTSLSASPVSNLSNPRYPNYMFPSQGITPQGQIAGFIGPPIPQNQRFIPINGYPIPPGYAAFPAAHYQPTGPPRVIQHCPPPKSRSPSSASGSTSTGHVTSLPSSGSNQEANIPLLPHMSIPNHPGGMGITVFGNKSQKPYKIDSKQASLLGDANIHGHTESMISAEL

B1: anti-ROR1 CAR45 (scFv, V domains shown)
VH: QVQLQQSGAEVKKPGASVKVSCKASGYTFSRYYIHWVRRAPGQGLEWMGLINPGGGSTNYAQKFQGRVTMTRDTSTNTVYLELSSLRSDDTAVYYCARDYGTIDARRFDFWGQGTLVTVSS
VL: QSALTQPPSASGTPGQRVTISCPGSSSNIGSNYVYWYQQLPGTAPKLLIYRNNQRPSGVPDRFSGSKSGTSATLGITGLQTGDEADYYCGTWDSSLSAYVFGTGTKVTVLG
B2: anti-ROR1 CAR50 (scFv, V domains shown)
VH: QVQLVQSGAEVKEPGASVKVSCKASGYTFRNSGITWVRQAPGQGLEWMGWINPNSGGAMYVDNFQGRATMTRDTSINTAYMELRSLSSDDTAVYYCARGMADLIDVFDIWGQGTLVTVSS
VL: TQPALTQPASVSGSPGQSITISCTGTSSDFGDYDYVSWYQQHPGKAPKLMIYDVSDRPSGVSNRFSGSKSGNTASLTISGLQAEDEADYFCSSFTTSSTLVFGGGTKLTVLG
B3: anti-ROR1 CAR53 (scFv, V domains shown)
VH: QVTLKESGPTLLKPTQTLTLTCTFSGFSLSTRGVGVGWIRQPPGQALEWLTLIYWDDDKRYSPSLKSRLTITKDTSKNQVVLTMTNMESVDTATYYCAQQTMTGAFDIWGQGTTVTVSS
VL: DIQMTQSPSSVSASVGDRVTITCRASQGISTLLAWYQQKPGKAPKLLISSASSLQSGVPARFSGSGSGTDFTLTISSLQPEDFATYYCQQSYRAPTFGQGTKVEIKR
B4: anti-ROR1 CAR54 (scFv, V domains shown)
VH: QVQLQESGPGLVKSSETLSLTCTVSGGSMNNYYWSWIRQPAGKGLEWMGRIYSSGSTNYNPALKSRVTMSVDTSKNQFSLNLSSVTAADTAIYYCARASWSGTYWALFDYWGQGTLVTVSS
VL: ETTLTQSPAFMSATPGDKVNISCKASQDIDDDLNWYQQKPGEAPILIIQEATTLVPGIPPRFSGSGFGTDFTLTINSMQSEDVAYYFCLQHDNFPPTFGQGTKVEIKR
B5: anti-ROR1 CAR60 (scFv, V domains shown)
VH: EVQLVQSGGDLVQPGGSLRLSCAASGFTFSSYSMNWVRQAPGKGLEWVSSISSSSSYIYYADSVKGRFTISRDNAKNSLYLQMNSLRAEDTAVYYCARGLGGWTHDAFDIWGQGTTVTVSS
VL: QSALTQPASVSGSPGQSITISCTGTSSDVGGYNYVSWYQQHPGKAPKLMIYDVSKRPSGVSNRFSGSKSGNTASLTISGLQAEDEADYYCSSYTGRSTVFGGGTKLTVLG

Target: recombinant human ROR1-IgG1-Fc (human) (UniProt Q01973)
Experiment: flow cytometry; CAR T cells stained with recombinant human ROR1-IgG1-Fc and mouse anti-human IgG-PE

Row | binding | Binder
1 | binds | B1
2 | binds | B2
3 | binds | B3
4 | binds | B4
5 | binds | B5
